{"sequences": {"note": "The chains behind the UniProt entries cited, without tags or fusion partners.", "UniProt Q05397": "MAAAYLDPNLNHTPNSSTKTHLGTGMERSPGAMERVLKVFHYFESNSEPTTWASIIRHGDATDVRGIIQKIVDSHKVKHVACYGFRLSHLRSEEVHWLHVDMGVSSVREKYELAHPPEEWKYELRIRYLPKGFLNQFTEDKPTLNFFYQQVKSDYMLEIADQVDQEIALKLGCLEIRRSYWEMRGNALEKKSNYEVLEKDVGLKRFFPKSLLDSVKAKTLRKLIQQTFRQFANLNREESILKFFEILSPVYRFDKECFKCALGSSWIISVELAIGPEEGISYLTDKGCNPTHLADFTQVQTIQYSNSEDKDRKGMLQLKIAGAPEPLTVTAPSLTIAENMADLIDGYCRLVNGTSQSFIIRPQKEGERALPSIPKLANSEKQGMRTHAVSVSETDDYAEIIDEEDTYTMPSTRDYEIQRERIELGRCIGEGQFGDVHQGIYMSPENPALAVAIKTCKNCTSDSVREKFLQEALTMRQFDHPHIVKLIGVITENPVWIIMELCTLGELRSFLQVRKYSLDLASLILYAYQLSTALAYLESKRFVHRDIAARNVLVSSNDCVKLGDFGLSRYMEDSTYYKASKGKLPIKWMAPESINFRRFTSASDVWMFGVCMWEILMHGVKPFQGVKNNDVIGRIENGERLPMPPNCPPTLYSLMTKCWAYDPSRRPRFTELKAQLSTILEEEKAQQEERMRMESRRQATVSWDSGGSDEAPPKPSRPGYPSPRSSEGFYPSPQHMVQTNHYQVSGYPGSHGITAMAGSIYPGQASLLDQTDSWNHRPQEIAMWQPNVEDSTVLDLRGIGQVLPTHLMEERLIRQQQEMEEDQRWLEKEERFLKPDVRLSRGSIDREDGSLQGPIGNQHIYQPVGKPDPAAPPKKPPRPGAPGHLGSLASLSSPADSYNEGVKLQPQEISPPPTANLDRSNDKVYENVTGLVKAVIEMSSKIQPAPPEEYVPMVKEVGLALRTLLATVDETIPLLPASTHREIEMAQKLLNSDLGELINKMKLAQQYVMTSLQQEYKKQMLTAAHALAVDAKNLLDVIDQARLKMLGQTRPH"}, "source": "paper PMC10750279", "target": "T1, TGFβRI (human (endogenous in HNSCC cell lines)) (UniProt P36897)", "T1 sequence": "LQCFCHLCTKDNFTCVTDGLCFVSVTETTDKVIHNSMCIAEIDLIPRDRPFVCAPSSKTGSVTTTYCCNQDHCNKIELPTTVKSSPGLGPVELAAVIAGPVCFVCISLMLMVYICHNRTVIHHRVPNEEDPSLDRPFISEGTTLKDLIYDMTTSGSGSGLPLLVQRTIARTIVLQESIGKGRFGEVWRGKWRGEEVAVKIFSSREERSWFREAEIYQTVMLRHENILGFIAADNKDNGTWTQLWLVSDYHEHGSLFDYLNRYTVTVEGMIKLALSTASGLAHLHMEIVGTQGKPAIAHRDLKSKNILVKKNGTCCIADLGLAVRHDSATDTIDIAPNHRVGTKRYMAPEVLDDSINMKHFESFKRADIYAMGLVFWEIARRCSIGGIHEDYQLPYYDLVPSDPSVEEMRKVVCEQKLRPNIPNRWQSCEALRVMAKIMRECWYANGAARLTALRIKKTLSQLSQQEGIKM", "assay": "co-IP; HNSCC cells lysed in radioimmunoprecipitation assay buffer; supernatants incubated with primary antibodies or IgG control at 4°C overnight, then magnetic beads 8 h, western blotting; cells untreated or with TNS4 depletion (shTNS4/siTNS4), TNS4 overexpression or FAK inhibitor", "note": "No constants are given. Whether binding was seen depends on the method and setting. In cells and extracts the contact can be indirect. Some results given as binding are weak or reduced against the parent protein; the word gives no strength."}
{"substance": "focal adhesion kinase (FAK) (from UniProt Q05397 1-1052) (enzyme)", "values": [{"measurement": "binding", "result": "binds"}]}
